These results are taken from PubChem BioAssay AID2685 (National Center for Advancing Translational Sciences (NCATS), 2010).

The experiment can be described thus: qHTS Assay for Lipid Storage Modulators in Drosophila S3 Cells.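 For cell number change: cells counted by Cell Tracker Red CMTPX staining in the red channel.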 The following applies: BODIPY lipid droplet fluorescence, 18-24 h; for cell number change: measured here: cell count max response, cells fed with added oleic acid. A digest of the protocol:
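Drosophila S3 cells loaded with oleic acid (400 uM, as added) and compounds at several concentrations; lipid droplets imaged by 488-nm laser-scanning cytometry, 500–530 nm intensity and object ratio to cell channel. Percent activity normalized to 20 uM Triacsin C.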

The mark [1] stands for this setting: measured here: cell number channel AC50, cells fed with added oleic acid.
Where [2] appears, read: measured here: lipid fluorescence (Fed channel) AC50, cells fed with added oleic acid.

Some of the results follow. Shown are side measurements of this screen, not its main read-out; they come without a call. Compounds called inactive in the main read-out are mostly missing here. Potencies come from curve fits of mixed quality, noted in brackets.

Take `COc1ccc(C(=O)n2cc(C(=O)c3cc(C)ccc3O)cn2)cc1OC`: the cell number change was 34.3%. Also, the AC50 (usually the concentration giving half of the maximal activity seen) under setting [1] was 29.1 µM [rising, single point]. Regarding `COc1cccc(CN(CC(=O)NCc2ccco2)C(=O)CNS(=O)(=O)c2ccccc2)c1`, the cell number change was -0.435%. For the molecule `CCCc1c(C(=O)N/N=C/c2cccnc2)nnn1-c1nonc1N`, the AC50 reads like this: under setting [1], 0.00651 µM [rising, full curve, poor fit]; under setting [2], 4.11 µM [rising, single point]. On to `O=C1CC(c2ccc(Cl)cc2)n2nc(N3C(=O)c4ccccc4C3=O)nc2N1` (centres undefined), for which the cell number change worked out at 73.4%. Besides, the AC50 under setting [1] was 4.61 µM [rising, full curve]. Besides, the AC50 under setting [2] is 6.51 µM [rising, single point]. Regarding `Fc1ccc(NC(=S)NN=C2CCCCCC2)cc1`, the cell number change was determined as 14.4%. Further, the AC50 under setting [2] is 23.1 µM [rising, single point]. As for `O=C(CCCn1c(=O)c2cccn2c2cccnc21)NCCc1ccc(Cl)cc1`, the cell number change was -13%. In addition, the AC50 under setting [2] is 0.82 µM [falling, single point]. Regarding `NC(=O)COC(=O)CCCSc1nc2ccccc2s1`, the cell number change was -29%. Take `O=C(N/N=C/c1cccc(NC(=O)c2ccc(Cl)cc2)c1)c1cccc(O)c1`: the cell number change was 16.9%. Also, under setting [2], the AC50 is 9.2 µM [rising, partial curve].

Turning to `COc1ccc(NS(=O)(=O)c2ccc3oc(SCC(N)=O)nc3c2)cc1`, the cell number change came to 9.24%. On the same count and under the same terms, next, `CC(C)C(OC(=O)c1ccco1)C(=O)NC1CCCC1` (centres undefined): 7.21%. Turning to `COC(=O)C1CCN(C(=O)CCC2CCCCC2)CC1`, the cell number change stood at 17.8%. Moreover, the AC50 under setting [2] is 0.00651 µM [falling, full curve, poor fit]. With `Cc1ccc(S(=O)(=O)N/N=C(\c2ccccc2)c2cccnc2)cc1`, the cell number change turned out to be 6.25%. Under setting [2], the AC50 was 7.31 µM [falling, partial curve, poor fit]. Turning to `C/C=C/C(=O)OCC(=O)Nc1c(Cl)cccc1Cl`, the cell number change was -44.6%. The AC50 under setting [1] is 3.66 µM [falling, full curve]. The AC50 under setting [2] was 3.66 µM [falling, full curve]. Take `O=C(c1ccccc1)c1ccc(OCC(=O)N2CCOCC2)cc1`: the AC50 under setting [2] is 20.6 µM [rising, single point]. Regarding `COc1ccc(NC(=S)N2CCN(C(=O)c3ccco3)CC2)cc1`, the cell number change was determined as 14.5%. Turning to `Cc1ccc(N2C(=O)c3cccc4c([N+](=O)[O-])ccc(c34)C2=O)c2cccnc12`, the cell number change was -18.8%. Besides, the AC50 under setting [2] was 6.51 µM [falling, single point]. As to `c1ccc(-c2cc3c(N4CCN(c5ncccn5)CC4)ncnc3s2)cc1`, the cell number change was -17.1%. Besides, the AC50 under setting [1] is 4.11 µM [falling, single point]. Besides, under setting [2], the AC50 was 6.51 µM [falling, single point].

For the molecule `CC(=O)Nc1ccc(C(=O)OCC(=O)NC(=O)NC(C)(C)C)cc1`, the cell number change was 21.9%. For `Cc1c(N=Cc2ccc[nH]2)c(=O)n(-c2ccccc2)n1C`, the cell number change is -11.9%. Moreover, the AC50 under setting [2] was 0.103 µM [falling, full curve, poor fit]. With `O=C(c1ccc([N+](=O)[O-])cc1Cl)N1CCN(c2ccccn2)CC1`, the cell number change is 6.4%.

Take `Cc1ccc(C(=O)Cn2c(C(=O)O)cc3ccccc32)cc1`: the cell number change was determined as 8.2%. With `CC(C)(C)c1ccc(-c2nc(C=O)c3ccccn23)cc1`, the cell number change was -9.73%. The AC50 under setting [2] is 0.731 µM [falling, full curve]. With `CS(=O)(=O)N(CC(=O)NCc1ccccc1)Cc1ccc(Cl)cc1`, the cell number change was -15.1%. The AC50 under setting [1] is 0.0184 µM [falling, full curve, poor fit]. Under setting [2], the AC50 is 0.411 µM [falling, full curve]. On to `COc1cc(C(=O)NCC(c2ccco2)N(C)C)cc(OC)c1OC` (centres undefined), for which the cell number change worked out at 20.3%. Further, the AC50 under setting [2] is 8.2 µM [rising, partial curve, poor fit].

`CCOc1cc(S(=O)(=O)n2ccnc2)ccc1Cl`: the cell number change came out at 13.5%. With `COc1ccc(C(=O)NCCc2ccc(Cl)cc2)cc1S(=O)(=O)N1CCCCC1C` (centres undefined), the cell number change was -0.501%. Moreover, the AC50 under setting [2] is 29.1 µM [rising, single point]. With `Cn1cc(CCC(=O)NC2CC(C)(C)Cc3c2cnn3-c2ccc(F)cc2)cn1` (centres undefined), the cell number change was found to be 1.66%. Further, the AC50 under setting [2] was 0.58 µM [rising, single point]. In the case of `COc1cccc(NC(=O)COC(=O)C2CC3CCCC(C2)C3=O)c1` (centres undefined), the cell number change is 18.2%. Further, the AC50 under setting [1] is 4.11 µM [falling, single point]. In addition, the half-maximal activity concentration (AC50) under setting [2] was 4.61 µM [falling, single point]. For the molecule `Cn1cc(CN2CCC(n3nccc3NC(=O)C3CCCC3)CC2)cn1`, the cell number change turned out to be 15.9%. As to `O=C(CCc1ccc(S(=O)(=O)N2CCOCC2)cc1)Nc1nccs1`, the cell number change was 5.92%. The AC50 under setting [2] is 9.2 µM [rising, partial curve, poor fit].

As to `CCc1ccc(C(=O)N2CCN(c3ccc(NC(=O)c4cccnc4)cc3)CC2)cc1`, the cell number change was -22.3%. Also, the AC50 under setting [2] was 2.31 µM [rising, partial curve, poor fit]. For the molecule `CCOC(=O)COc1ccc(S(=O)(=O)N2CCc3ccccc3C2)cc1`, the cell number change was -58.8%. In addition, the AC50 under setting [1] is 32.6 µM [falling, single point]. For the same molecule, the AC50 under setting [2] is 0.731 µM [falling, single point]. With `C=CCNC(=O)C(C#N)c1nc2ccccc2nc1N1CCN(Cc2ccccc2)CC1` (centres undefined), the cell number change was -13%.

For the molecule `Cc1cccc(NC(=S)NC23CN4CN(CN(C4)C2)C3)c1`, the cell number change is 5.74%. As to `O=C(C1CCCO1)N(Cc1ccccc1)c1ccccc1` (centres undefined), the cell number change is -69.1%. For the same molecule, the AC50 under setting [1] was 16.4 µM [falling, partial curve]. Moreover, the AC50 under setting [2] is 18.4 µM [falling, partial curve]. As to `COc1ccc(CCNC(=O)C2CCCN2S(=O)(=O)c2cccc3nsnc23)cc1OC` (centres undefined), under setting [2], the AC50 was 4.11 µM [rising, partial curve, poor fit].

Turning to `C/C(=N/NS(=O)(=O)c1ccc(Cl)cc1)c1ccncc1`, the cell number change was -9.41%. The AC50 under setting [1] is 2.06 µM [rising, partial curve, poor fit]. Under setting [2], the AC50 was 0.58 µM [rising, single point].

On to `COc1ccc(C2CC(c3ccc(OC)cc3)n3nc(NC(=O)c4ccco4)nc3N2)cc1` (centres undefined), for which the cell number change amounted to 17.4%. With `COc1ccc(N2C(=O)C(CC(=O)Nc3ccccc3)N(Cc3ccc4c(c3)OCO4)C2=O)cc1` (centres undefined), the cell number change was -30.1%. In addition, under setting [1], the AC50 was 0.326 µM [falling, full curve, poor fit]. The AC50 under setting [2] is 6.51 µM [falling, single point].

Regarding `O=C1CC(N2CCC(c3nc4ccccc4o3)CC2)C(=O)N1` (centres undefined), the cell number change is -26.4%. Moreover, under setting [2], the AC50 was 29.1 µM [falling, partial curve, poor fit]. Regarding `CCOCC(=O)N1CCC(Cc2ccccc2)CC1`, the cell number change was found to be 38.8%. Also, the AC50 under setting [2] was 29.1 µM [rising, single point]. Turning to `COc1ccccc1N1CCN(CCCCN2C(=O)C3CCCCN3C2=O)CC1` (centres undefined), the cell number change was 11.3%. Also, the AC50 under setting [2] was 29.1 µM [rising, single point]. As to `CCOC(=O)C(=CNc1ccc2c(c1)c1ccccc1n2CC)C(=O)OCC`, the cell number change was 0.12%. Besides, the AC50 under setting [2] is 5.17 µM [rising, partial curve]. Turning to `CCc1c(C)nc(SCC(=O)Nc2ccc(Br)cc2)[nH]c1=O`, the AC50 is 0.651 µM [falling, single point] under setting [1] and 0.013 µM [falling, full curve] under setting [2]. In the case of `O=C(O)Cn1c(P(=O)(O)c2ccccc2)nc2ccccc21`, the cell number change is -13.5%.

For `CC(C)Oc1ccc(C(=O)Nc2ccccc2N2CCCC2)cc1`, the cell number change stood at 0.322%. For the same molecule, the AC50 under setting [2] was 2.91 µM [falling, partial curve]. As to `Cc1ccc(-c2csc(C3=C(O)CN(NC(=O)c4ccc([N+](=O)[O-])cc4)C3=N)n2)cc1`, the cell number change is -61.8%.

Consider `Cc1ccsc1C(=O)N1CCN(S(=O)(=O)c2cccs2)CC1`, for which, under setting [2], the AC50 is 0.116 µM [rising, full curve, poor fit].

Regarding `COc1ccc(-c2cc(C(F)(F)F)n3nc(C(=O)NCc4ccco4)cc3n2)cc1OC`, the cell number change is -48.1%. Under setting [1], the AC50 is 0.184 µM [falling, full curve, poor fit]. Also, the AC50 under setting [2] is 25.9 µM [falling, partial curve]. Regarding `Cc1ccccc1C(=O)Nc1ccc(Br)cn1`, the cell number change was -11.3%. Moreover, the AC50 under setting [2] is 0.82 µM [falling, full curve, poor fit]. Turning to `COc1ccc(OC)c(C2/C(=C(\O)c3ccc(OC)c(Cl)c3)C(=O)C(=O)N2CCN(C)C)c1` (centres undefined), the cell number change was -198%. Moreover, under setting [1], the AC50 was 23.1 µM [falling, partial curve]. With `COc1ccccc1-c1nc(C#N)c(N2CC(C)CC(C)C2)o1` (centres undefined), the cell number change was -35.1%. Take `COc1ccc(NC(=O)C2CCCN(c3ncccn3)C2)cc1` (centres undefined): the cell number change amounted to 21%. Besides, the AC50 under setting [1] was 0.164 µM [rising, full curve, poor fit].

Regarding `COc1ccc(OC)c(NC(=O)C(=O)NCCC2=CCCCC2)c1`, the cell number change was -3.74%. In addition, the AC50 under setting [2] was 3.26 µM [rising, single point]. As for `CC(C)=CC(=O)Nc1nc2ccc([N+](=O)[O-])cc2s1`, the cell number change was -5.54%. Consider `CCOC(=O)N1CCN(C(=O)c2ccc(N3CC4CC(C3)c3cccc(=O)n3C4)c(NC(=O)c3ccc(F)cc3)c2)CC1` (centres undefined), for which the cell number change was found to be 15.3%. For `CCCCC(CC)C(=O)Nc1cc(C(=O)NCc2ccc(C)cc2)ccc1N1CCC2(CC1)CC(c1ccccc1)=NO2` (centres undefined), the cell number change came to 45.3%. Moreover, under setting [1], the AC50 is 32.6 µM [rising, partial curve]. Regarding `COc1ccc(-c2cc(N3CCCC3)n3ncnc3n2)cc1`, the AC50 is 2.06 µM [rising, partial curve] under setting [1] and 6.51 µM [rising, single point] under setting [2]. In the case of `CCC(C)c1ccccc1NC(=O)CN(C)CC(=O)Nc1ccccc1SC` (centres undefined), the cell number change was -2.02%. Moreover, the AC50 under setting [2] is 0.13 µM [falling, full curve, poor fit]. Consider `CN(C(=O)CSC(=O)c1ccccc1)c1ccccc1`, for which the cell number change is -7.62%. In addition, the AC50 under setting [2] is 6.51 µM [rising, single point]. Take `N#C/C(=C\c1c(F)cccc1Cl)c1nn(-c2ccccc2)c(-n2cccc2)c1C#N`: the cell number change amounted to 9.76%. For the same molecule, under setting [2], the AC50 was 0.731 µM [rising, full curve, poor fit].

For the molecule `COC(=O)c1cc2occc2n1Cc1nc(-c2ccccc2Cl)oc1C`, the cell number change was -19.2%. For the same molecule, the AC50 under setting [2] is 9.2 µM [rising, partial curve]. With `CCCCN1CCc2c1nc1ccc(Br)cc1c2N`, the AC50 under setting [2] is 5.17 µM [falling, single point].
